Test results as given in patent US20120282619A1.
Results are given in words; binding and its absence hold for the method and conditions named. Some entries that bind do so weakly or less than the wild type.

Protein sequences, listed by entry. Tags and fused reporters are not part of them. Residues count along the entry.
UniProt Q05397, residues 2-1052: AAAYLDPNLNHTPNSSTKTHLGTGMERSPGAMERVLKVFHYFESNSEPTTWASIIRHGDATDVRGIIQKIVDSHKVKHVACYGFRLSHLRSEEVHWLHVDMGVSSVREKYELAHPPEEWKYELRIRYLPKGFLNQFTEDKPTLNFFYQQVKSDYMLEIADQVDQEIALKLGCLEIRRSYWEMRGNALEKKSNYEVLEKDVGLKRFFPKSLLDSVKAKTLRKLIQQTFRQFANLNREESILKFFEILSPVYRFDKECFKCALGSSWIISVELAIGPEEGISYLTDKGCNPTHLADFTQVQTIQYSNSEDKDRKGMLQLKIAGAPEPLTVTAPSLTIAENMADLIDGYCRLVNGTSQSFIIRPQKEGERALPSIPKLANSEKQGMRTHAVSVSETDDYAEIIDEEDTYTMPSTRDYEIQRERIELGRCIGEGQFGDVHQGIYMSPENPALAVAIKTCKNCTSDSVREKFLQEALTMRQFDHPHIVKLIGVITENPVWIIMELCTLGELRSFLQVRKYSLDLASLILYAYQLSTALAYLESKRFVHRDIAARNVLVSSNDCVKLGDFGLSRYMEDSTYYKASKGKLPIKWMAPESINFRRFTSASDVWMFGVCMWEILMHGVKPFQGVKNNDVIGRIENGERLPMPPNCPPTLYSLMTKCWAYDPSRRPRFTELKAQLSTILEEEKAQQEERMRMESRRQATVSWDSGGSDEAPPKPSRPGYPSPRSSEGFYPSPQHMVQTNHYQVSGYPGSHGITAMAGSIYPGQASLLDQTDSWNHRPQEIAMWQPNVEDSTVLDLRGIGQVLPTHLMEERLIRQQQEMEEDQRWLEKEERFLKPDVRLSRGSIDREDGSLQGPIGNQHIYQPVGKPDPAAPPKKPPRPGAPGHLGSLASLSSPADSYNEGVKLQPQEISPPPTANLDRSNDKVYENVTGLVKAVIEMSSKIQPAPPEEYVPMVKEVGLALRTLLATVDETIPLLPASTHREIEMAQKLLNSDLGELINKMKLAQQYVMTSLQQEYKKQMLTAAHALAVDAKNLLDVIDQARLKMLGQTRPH

Tests used:
p190RhoGAP (human) [1] = molecular target: T1, p190RhoGAP (human) (UniProt Q9NRY4); assay: anti-FAK immunoprecipitation from Cp and Tp cell lysates, Western blot
T1 sequence (looked up): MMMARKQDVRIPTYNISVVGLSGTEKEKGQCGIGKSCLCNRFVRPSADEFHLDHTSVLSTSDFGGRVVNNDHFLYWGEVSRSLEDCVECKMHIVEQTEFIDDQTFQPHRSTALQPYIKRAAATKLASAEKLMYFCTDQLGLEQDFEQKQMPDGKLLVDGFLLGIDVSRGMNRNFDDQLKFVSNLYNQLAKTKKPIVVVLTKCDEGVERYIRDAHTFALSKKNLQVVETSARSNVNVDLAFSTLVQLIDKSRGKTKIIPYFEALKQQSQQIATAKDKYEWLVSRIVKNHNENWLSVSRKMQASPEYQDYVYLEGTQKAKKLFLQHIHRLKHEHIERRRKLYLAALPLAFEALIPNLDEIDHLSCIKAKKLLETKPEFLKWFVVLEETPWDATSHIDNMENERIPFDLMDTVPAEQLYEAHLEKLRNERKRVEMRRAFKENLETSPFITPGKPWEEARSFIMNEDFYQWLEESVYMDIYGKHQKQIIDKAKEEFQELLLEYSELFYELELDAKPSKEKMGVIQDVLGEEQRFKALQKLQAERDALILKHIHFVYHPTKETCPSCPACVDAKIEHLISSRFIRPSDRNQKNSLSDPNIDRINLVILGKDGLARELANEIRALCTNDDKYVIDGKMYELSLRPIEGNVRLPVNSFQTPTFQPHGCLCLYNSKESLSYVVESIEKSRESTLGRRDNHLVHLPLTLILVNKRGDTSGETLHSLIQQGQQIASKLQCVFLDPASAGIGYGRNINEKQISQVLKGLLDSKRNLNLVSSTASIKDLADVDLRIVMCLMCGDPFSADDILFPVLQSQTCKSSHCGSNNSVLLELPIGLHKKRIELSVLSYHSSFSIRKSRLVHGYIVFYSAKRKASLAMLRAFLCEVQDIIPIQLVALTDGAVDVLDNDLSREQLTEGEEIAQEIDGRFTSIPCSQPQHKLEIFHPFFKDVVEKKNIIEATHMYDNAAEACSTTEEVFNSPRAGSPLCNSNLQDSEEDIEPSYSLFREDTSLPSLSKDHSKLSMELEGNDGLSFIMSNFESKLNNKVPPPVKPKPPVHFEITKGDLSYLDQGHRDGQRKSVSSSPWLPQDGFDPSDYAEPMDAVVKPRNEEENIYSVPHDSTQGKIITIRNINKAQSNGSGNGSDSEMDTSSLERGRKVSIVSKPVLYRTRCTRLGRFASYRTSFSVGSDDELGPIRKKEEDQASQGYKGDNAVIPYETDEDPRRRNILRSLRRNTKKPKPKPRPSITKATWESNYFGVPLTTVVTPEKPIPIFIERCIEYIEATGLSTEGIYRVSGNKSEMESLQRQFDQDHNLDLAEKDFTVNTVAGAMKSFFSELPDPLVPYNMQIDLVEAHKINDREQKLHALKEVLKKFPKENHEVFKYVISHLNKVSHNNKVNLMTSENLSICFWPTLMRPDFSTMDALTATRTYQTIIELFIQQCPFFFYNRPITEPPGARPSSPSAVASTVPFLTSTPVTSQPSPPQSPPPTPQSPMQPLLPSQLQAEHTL

[2] = molecular target: T2, GTPase regulator associated with FAK (GRAF) (human) (UniProt Q9UNA1); assay: as above
T2 sequence (looked up): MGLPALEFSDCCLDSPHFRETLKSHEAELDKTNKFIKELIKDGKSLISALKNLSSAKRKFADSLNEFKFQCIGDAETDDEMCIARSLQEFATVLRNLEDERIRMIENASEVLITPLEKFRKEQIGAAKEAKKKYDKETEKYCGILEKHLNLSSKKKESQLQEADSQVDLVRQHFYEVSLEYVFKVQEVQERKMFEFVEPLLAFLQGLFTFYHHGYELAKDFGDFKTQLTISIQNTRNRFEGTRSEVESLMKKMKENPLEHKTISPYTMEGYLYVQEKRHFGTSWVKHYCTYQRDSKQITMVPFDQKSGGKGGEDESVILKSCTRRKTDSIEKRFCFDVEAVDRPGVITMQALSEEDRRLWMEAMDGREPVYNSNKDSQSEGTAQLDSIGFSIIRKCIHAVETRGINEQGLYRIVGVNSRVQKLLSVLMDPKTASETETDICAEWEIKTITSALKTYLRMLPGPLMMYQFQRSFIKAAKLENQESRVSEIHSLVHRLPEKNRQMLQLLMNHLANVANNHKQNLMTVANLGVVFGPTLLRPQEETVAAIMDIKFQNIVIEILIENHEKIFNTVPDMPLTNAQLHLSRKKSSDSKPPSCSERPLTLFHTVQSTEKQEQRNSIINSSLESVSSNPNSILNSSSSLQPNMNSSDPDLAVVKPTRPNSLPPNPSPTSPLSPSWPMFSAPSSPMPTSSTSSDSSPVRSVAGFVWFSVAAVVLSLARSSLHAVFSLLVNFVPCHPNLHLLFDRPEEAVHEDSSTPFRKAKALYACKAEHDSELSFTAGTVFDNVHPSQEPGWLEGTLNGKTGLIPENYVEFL

p190RhoGAP (human) [3] = molecular target: T1, p190RhoGAP (human); assay: anti-FAK immunoprecipitation, Western blot (FIG. 9)
[4] = molecular target: T2, GTPase regulator associated with FAK (GRAF) (human); assay: as above

Measured: binding

focal adhesion kinase (FAK) (from UniProt Q05397 2-1052) (enzyme)
binds: all assays above
